Data taken from paper PMC11088158.
These are yes or no findings as the source states them, for the method shown. In cells and extracts the contact can be indirect. A yes stands for co-enrichment or nearness to the bait. Other partners may have been found.

Sequences of proteins named here, by UniProt entry; tags and fusion partners are left off.
UniProt P18653: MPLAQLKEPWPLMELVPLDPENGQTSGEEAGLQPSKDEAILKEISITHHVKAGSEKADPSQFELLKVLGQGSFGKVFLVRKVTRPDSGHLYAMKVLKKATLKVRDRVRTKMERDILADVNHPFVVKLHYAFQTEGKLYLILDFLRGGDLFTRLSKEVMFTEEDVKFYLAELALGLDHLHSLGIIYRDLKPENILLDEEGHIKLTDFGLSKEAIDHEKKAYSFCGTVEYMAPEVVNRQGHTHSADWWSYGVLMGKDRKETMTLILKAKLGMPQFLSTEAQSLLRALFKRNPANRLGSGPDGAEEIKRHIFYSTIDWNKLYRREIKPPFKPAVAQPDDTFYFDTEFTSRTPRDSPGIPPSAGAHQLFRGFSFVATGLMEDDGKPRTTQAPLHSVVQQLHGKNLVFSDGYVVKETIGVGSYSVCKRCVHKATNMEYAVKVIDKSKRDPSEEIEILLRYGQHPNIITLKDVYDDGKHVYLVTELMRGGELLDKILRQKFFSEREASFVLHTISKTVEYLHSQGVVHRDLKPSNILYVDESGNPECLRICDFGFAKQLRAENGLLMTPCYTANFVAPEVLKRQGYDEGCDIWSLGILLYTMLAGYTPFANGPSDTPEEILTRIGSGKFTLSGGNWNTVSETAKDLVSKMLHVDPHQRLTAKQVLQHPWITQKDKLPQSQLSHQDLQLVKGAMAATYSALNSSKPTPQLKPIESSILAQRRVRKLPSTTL

T1: NLRP4E (mouse (endogenous in oocytes)) (UniProt Q66X19)
T1 sequence: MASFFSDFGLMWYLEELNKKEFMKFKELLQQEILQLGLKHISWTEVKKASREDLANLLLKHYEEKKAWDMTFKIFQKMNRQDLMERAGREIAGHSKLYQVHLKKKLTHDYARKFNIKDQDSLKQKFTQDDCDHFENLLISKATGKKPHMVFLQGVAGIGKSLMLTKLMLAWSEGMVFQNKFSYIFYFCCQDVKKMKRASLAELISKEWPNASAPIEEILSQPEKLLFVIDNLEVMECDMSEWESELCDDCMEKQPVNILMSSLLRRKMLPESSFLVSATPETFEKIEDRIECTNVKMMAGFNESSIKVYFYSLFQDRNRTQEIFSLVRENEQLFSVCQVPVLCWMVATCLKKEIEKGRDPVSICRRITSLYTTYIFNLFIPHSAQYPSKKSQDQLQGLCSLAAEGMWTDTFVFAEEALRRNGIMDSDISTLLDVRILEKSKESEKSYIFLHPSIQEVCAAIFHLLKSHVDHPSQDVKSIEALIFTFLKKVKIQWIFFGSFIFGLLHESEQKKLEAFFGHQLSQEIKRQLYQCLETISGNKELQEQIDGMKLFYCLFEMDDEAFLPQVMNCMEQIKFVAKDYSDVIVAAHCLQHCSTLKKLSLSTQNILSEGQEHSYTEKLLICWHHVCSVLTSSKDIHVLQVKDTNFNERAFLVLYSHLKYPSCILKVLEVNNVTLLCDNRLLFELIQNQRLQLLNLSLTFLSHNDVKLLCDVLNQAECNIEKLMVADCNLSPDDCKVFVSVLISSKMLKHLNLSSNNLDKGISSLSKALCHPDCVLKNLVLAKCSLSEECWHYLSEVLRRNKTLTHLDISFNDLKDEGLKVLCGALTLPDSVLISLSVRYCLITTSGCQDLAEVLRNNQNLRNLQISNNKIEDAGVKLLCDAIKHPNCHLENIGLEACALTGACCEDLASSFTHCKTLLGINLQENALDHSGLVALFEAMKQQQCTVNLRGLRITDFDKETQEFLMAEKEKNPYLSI


The molecules below were run against T1, NLRP4E (mouse (endogenous in oocytes)) (assay: affinity purification with mass spectrometry; IP with NLRP4E antibody or control IgG on protein A/G from mouse oocyte lysate; SDS-PAGE, silver staining; bands stronger in the NLRP4E lane cut and identified by MALDI-TOF-MS, proteins of the control bands subtracted).

Molecule	binding
G protein-regulated inducer of neurite outgrowth 1 (GRIN1) (protein, UniProt Q3UNH4 1-932) MRDCCSSPKAIPAPPRHALDQSLGMDPRHTSSSGAAEGASCSERPAGSLACPSPNCSPLPETPRAHGALTSDNSGTTLFGKPEPMSSAEATPTASEIRNPVFSGKMDGNSLKQADSTSTRKEEAGSLRNEESMLKGKAEPMIYGKGEPGTVGRVDCTASGAENSGSLGKVDMPCSSKVDIVSPGGDNAGSLRKVETISSGKMDPKTENVMHSRRERPGSTGEGDLVSLRENDMKPPDNTDSASTKKTDPEFSGKLTPGSSGKTELVSSVTVAPVTSENVNPVCSGGAGPAAVGNSETLSSVKKDPQLLGKKEAVSSGEGGSVSVRMAETVSARQPEGMFPAKTDSTSSNSTGPSGRADPVSLRNSELVSPVKPERLSSGQAERVSLVKTETLSSGKEDPRSSRRVDHTTVTGNMQTSQKGNPESSGKTDLGSSSSGDTRSLGTWGSLSAAKAEVTEGKGDPQPWKKASLPASEKTDPLASSKAGSASQGKAETVSPGEVDAMTLGKTVPTSSGKTALVSPGKVDLMTSERAEGIPELQASEKGNPVNSTRVDTGATGSTEPKSGVKVITQIPGATSPGKVETPSLQKEQPQLSEKTDPSRKVDPPTTVEPVSLGKADSASPSPRKAESQTSAKTVPQAPDKATSSLRQSDGTPYSSAQPQRDTRSIGSLPEREPSASTSQKDLAAAAAQKSPSAEAAAPPPGPRTRDNFTKAPSWDAGAPPPREDAGTQAGAQACVSVAVSPMSPQDGAGGPAFSFQAAPRAPSPAPRPPSRRDAGLQVSLGAAETRSVATGPMTPQAAAPPAVPPVFPEVRVRPGSVLAAALAPQEATEPVRDVSWDEKGMTWEVYGASMEVEVLGMAIQKHLERQIEEHGRQGAPAPAPPPAVRAGPGRAGSVRTAPAEGAAKRPPGLFRALLQSVRRPRCCSRAGPTAE	binds
radial spoke head protein 6 homolog A (RSHL1) (protein, UniProt Q8CDR2 1-708) MGEPPPNPDPSQTRRASQGSERARSQEYSQPLLTIPEDGLNRPPPQRGSRSSQGSQDLQGTGLPHWPQRSSLVPDVQGDEGTEYHQSMPLGYTPGFPMEFSQQGYLDDSRMMEQFPQGQDLLEQLESTYQGSASGILGQLNLYPREDEIFSQDTQHGPYLRDDPSLHLRPSDLGFMPIVGEVPDPEPRELAIQNAKAYLLRTSMSCNLSLYEHLVNLLTKILNQRPEDPLSILESLNRTMQWEWFHPKLDTLRDDPEMQPTYEMAEKQKALFIRGGGEGEQEMEEEVTDSPVPNIMETAFYFEQAGVGLSSDESFRIFLALKQLVEQQPIHMCRFWGKILGLSRSYLVAEVEFREGEEEGEEEEVEEMMEGGEVLETHGEEEGEEDEEKVVDSVPKPQWKPPPIIPKEESRSGTNKYLYFVCNEPGRPWTRLPHVTPAQIVCARKIKKFFTGFLDTPVISYPPFPGNEANYLRAQIARISAATHISPLGFYQFGEEEGDEEEEGGAGRDSFEENPDFEGIPVLELVDSMANWVHHTQHILPQGRCTWVNPLQKTEEEEELGEEEEKADEAMEEVEQEVGPPLLTPLSEDAEIMHLSPWTTRLSCSLSPQYSVAIVRSNLWPGAYAYATGKKFENIYIGWGHKYSPENFNPMLPALIQQEYPSGPEITEMSDPTVEEEQALKAAQEQALAAAEEEEEDEEEEEDEDLED	binds

Next, values leading:

binding	Molecule
binds	ribosomal protein S6 kinase alpha-1 (RSK) (from UniProt P18653 1-724)
binds	glycogen phosphorylase (mouse (endogenous in oocytes))
